Measurements reported in PubChem BioAssay AID686938 (Drosophila RNAi Screening Center, 2013).

Aim: 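Looking for CRAC channel components and the factors controlling them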 (primary screen)
Cell system: Drosophila S2R+ cells
Knock-down reagent: long dsRNA against Drosophila genes, about 0.25 µg dsRNA per well, roughly 10,000 cells
Timing: 5 days of knock-down before the calcium assay
Challenge: thapsigargin (SERCA pump blocker) to empty calcium stores; entry signal taken 4 min after adding it
Measured: 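Duplicate raw fluo-4 intensities per well from a plate reader, at rest and four minutes after thapsigargin emptied calcium stores; entry-to-rest ratio filled for only some wells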
Direction: calcium entry signal: higher = stronger calcium signal after store depletion; resting calcium signal: higher = higher resting calcium signal
Units: calcium entry signal in fluorescence units; resting calcium signal in fluorescence units
Rule for the call: 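Hit if the duplicate-averaged plate z-score for entry over resting signal is under −3; wells with weak total dye signal (Fmax z < −2) or more than 5 off-targets removed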
Calls: active = strongly reduced calcium entry; inactive = no strong reduction
The deposit covers about 23,000 reagents; shown is an unselected part of those with a known target gene and a result. In the full data, 75 (0.33%) got an active call. 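Raw plate signals without normalisation; calls rest on plate z-scores that were not deposited; ratio present for only 364 wells.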 Reagents against one gene are numbered here. Not given: the dose of the treatment.

predicted target | dsRNA no. | calcium entry signal, replicate 1 | calcium entry signal, replicate 2 | resting calcium signal, replicate 1 | resting calcium signal, replicate 2 | call
Poxn | 1 | 1.90e7 | 4.64e7 | 1.29e7 | 4.08e7 | inactive
Poxn | 2 | 3.79e7 | 3.82e7 | 1.55e7 | 1.84e7 | inactive
CG7794 | 1 | 3.57e7 | 4.02e7 | 4.65e7 | 1.75e7 | inactive
PolQ | 1 | 4.08e7 | 4.44e7 | 1.98e7 | 2.14e7 | inactive
CG13326 | 1 | 3.85e7 | 4.31e7 | 1.85e7 | 1.97e7 | inactive
c(3)G | 1 | 2.81e7 | 2.44e7 | 1.35e7 | 1.08e7 | inactive
Unc-115a | 1 | 3.03e7 | 5.31e7 | 1.48e7 | 2.11e7 | inactive
CG8929 | 1 | 3.59e7 | 3.34e7 | 1.58e7 | 1.62e7 | inactive
CG8929 | 2 | 2.61e7 | 4.07e7 | 1.39e7 | 1.60e7 | inactive
CG7707 | 1 | 2.17e7 | 3.94e7 | 1.29e7 | 1.61e7 | inactive
MED11 | 1 | 1.68e7 | 2.23e7 | 1.23e7 | 1.27e7 | inactive
MED11 | 2 | 3.08e7 | 2.34e7 | 1.74e7 | 1.24e7 | inactive
Syt12 | 1 | 3.67e7 | 5.00e7 | 1.85e7 | 2.30e7 | inactive
spict | 1 | 6.12e7 | – | 2.99e7 | – | inactive
Prosbeta7 | 1 | 1.61e7 | 1.38e7 | 1.12e7 | 9.41e6 | inactive
E(spl)mbeta-HLH | 1 | 2.51e7 | 3.45e7 | 1.22e7 | 1.52e7 | inactive
Gba1a | 1 | 2.97e7 | 3.48e7 | 1.60e7 | 1.66e7 | inactive
Ugt49B1 | 1 | 2.65e7 | 4.51e7 | 1.47e7 | 1.91e7 | inactive
CG13998 | 1 | 3.26e7 | 3.60e7 | 1.60e7 | 1.58e7 | inactive
Mal-B1 | 1 | 3.16e7 | 3.29e7 | 1.63e7 | 1.59e7 | inactive
CG10005 | 1 | 4.78e7 | 2.90e7 | 2.12e7 | 1.66e7 | inactive
CG12923 | 1 | 3.49e7 | 3.02e7 | 1.60e7 | 1.47e7 | inactive
Cht6 | 1 | 3.95e7 | 5.11e7 | 1.87e7 | 2.41e7 | inactive
Cht6 | 2 | 3.78e7 | 5.96e7 | 2.01e7 | 3.36e7 | inactive
Cht6 | 3 | 3.90e7 | 5.53e7 | 1.88e7 | 2.58e7 | inactive
Cht6 | 4 | 4.71e7 | 4.18e7 | 2.39e7 | 2.10e7 | inactive
CG13124 | 1 | 4.89e7 | – | 2.32e7 | – | inactive
Polr2L | 1 | 1.88e7 | 1.91e7 | 1.17e7 | 1.01e7 | inactive
alpha-Est9 | 1 | 3.83e7 | 3.27e7 | 1.91e7 | 1.64e7 | inactive
TTLL5 | 1 | 3.82e7 | 3.24e7 | 2.03e7 | 1.59e7 | inactive
CG8654 | 1 | 3.05e7 | 2.67e7 | 1.48e7 | 1.35e7 | inactive
Cul6 | 1 | 5.10e7 | 3.07e7 | 3.41e7 | 1.50e7 | inactive
MsR2 | 1 | 3.03e7 | 4.02e7 | 1.51e7 | 1.87e7 | inactive
MsR2 | 2 | 3.00e7 | 4.55e7 | 1.45e7 | 1.87e7 | inactive
MsR2 | 3 | 4.20e7 | 3.67e7 | 2.09e7 | 1.63e7 | inactive
Tbc1d15-17 | 1 | 4.60e7 | – | 2.09e7 | – | inactive
sti | 1 | 1.80e7 | 1.68e7 | 1.19e7 | 1.09e7 | inactive
sti | 2 | 1.73e7 | 1.68e7 | 1.15e7 | 1.14e7 | active
Rpp21 | 1 | 3.57e7 | 3.48e7 | 2.11e7 | 1.73e7 | inactive
qkr58E-3 | 1 | 4.20e7 | – | 2.13e7 | – | inactive

Entries listed so far whose gene name starts with U or u (2):
predicted target | dsRNA no. | calcium entry signal, replicate 1 | calcium entry signal, replicate 2 | resting calcium signal, replicate 1 | resting calcium signal, replicate 2 | call
Unc-115a | 1 | 3.03e7 | 5.31e7 | 1.48e7 | 2.11e7 | inactive
Ugt49B1 | 1 | 2.65e7 | 4.51e7 | 1.47e7 | 1.91e7 | inactive
